US8809342B2, “Glucagon receptor modulators” (Pfizer Inc., priority 2010, dated 2014)

By UniProt entry, the sequences of proteins in these tests, tags left out. Residues count along the entry.
UniProt P47871, 26-477 limits assumed: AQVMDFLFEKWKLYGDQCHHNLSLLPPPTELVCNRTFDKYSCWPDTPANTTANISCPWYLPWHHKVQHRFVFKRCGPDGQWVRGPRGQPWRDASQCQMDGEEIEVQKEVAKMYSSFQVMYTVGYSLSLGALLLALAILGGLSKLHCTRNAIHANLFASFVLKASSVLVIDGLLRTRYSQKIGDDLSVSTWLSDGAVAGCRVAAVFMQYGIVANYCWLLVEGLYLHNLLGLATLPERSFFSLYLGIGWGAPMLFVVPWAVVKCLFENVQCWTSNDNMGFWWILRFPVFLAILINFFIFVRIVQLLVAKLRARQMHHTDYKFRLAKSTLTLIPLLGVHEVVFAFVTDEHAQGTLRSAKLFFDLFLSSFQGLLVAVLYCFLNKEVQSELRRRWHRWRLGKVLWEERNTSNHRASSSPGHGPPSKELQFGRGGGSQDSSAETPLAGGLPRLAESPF

Target: human glucagon receptor (Homo sapiens, UniProt P47871)
Test: Glucagon cAMP assay (Cisbio cAMP detection)
Format: cell-based
Details: read-out: cAMP kb (nm); CHOK1 cells stably transfected with the human glucagon receptor; 100 pM glucagon challenge; Kb calculated from IC50 with a modified Cheng-Prusoff equation

## Cc1cc(NC(CC(C)C)c2ccc(C(=O)NCCC(=O)O)cn2)cc(C)c1-c1ccc(C(F)(F)F)cc1 (stereo not shown)
  Kb: 310 nM

Structures were worked out from names or drawings and are uncertain.
